Laboratory results taken from publication PMC7819943, “Rice protein-binding microarrays: a tool to detect cis-acting elements near promoter regions in rice”.
This is one part of the list.

Chains of the proteins cited; added tags and fusions are not shown.
UniProt Q0JBA9, entry or part of it: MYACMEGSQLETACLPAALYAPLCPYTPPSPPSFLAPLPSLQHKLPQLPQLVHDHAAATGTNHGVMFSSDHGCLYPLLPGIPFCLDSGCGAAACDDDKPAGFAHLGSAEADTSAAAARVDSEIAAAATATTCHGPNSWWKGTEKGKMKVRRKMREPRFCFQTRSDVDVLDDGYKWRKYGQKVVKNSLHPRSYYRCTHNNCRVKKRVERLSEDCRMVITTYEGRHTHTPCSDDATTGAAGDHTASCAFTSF

target: OsWRKY34 (Oryza sativa, UniProt Q0JBA9 1-250); experiment: protein-binding microarray (RPBM); PBS, 2% BSA, 51.3 ng/ul salmon testes DNA, 50 uM zinc acetate, 200 nM TF, 25 C, 1 h; high values mean tight binding; conditions: protein: recombinant; tags: N-terminal polyhistidine and DsRed monomer fusion (pET32a); label: CyDye5-dUTP incorporated in the synthesized complementary strand; 3' TTTTT single-stranded linker to array surface; dsDNA, one strand shown
Outline: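 Per-feature fluorescence intensity (arbitrary units), read on an Axon 4000B scanner, is the binding signal. Transcription factors carrying an N-terminal polyhistidine tag and DsRed fusion were expressed in E. coli BL21-CodonPlus and purified on Ni–NTA. A custom Agilent array, made double-stranded by primer extension with Cy5-dUTP and blocked with 2% BSA, was incubated with 200 nM protein in PBS, 2% BSA, salmon testes DNA and 50 µM zinc acetate at 25 °C for 1 h and then washed.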

Sequence | binding signal
TCTCACGTTTTTCCCACGTCAACCGACCTCGCGTCCGCGTCGGAGTCACCTAGTGCAG | 10400 fluorescence intensity (a.u.)
AAATTTCCTTTCCTTCTTCCCTTGGCCCATCTCTCCCCTCCGGAGTCACCTAGTGCAG | 9460 fluorescence intensity (a.u.)
GTTGGGGATGCGTTTTATCCAGTTTTGTGATCTAGGGACTCGGAGTCACCTAGTGCAG | 11400 fluorescence intensity (a.u.)
AGGTTCACAATCTATCCGACTTTTGATTTTCTTTCAATTCCGGAGTCACCTAGTGCAG | 9110 fluorescence intensity (a.u.)
GCGGGCCGCCATGCTAGTTATATTTACACACATTTAGAACCGGAGTCACCTAGTGCAG | 9560 fluorescence intensity (a.u.)
GGGGATCTCTTCTTCTTCCTCGCGGCCGGCGCCGGCCATGCGGAGTCACCTAGTGCAG | 11800 fluorescence intensity (a.u.)
AAAAGCACCACCGCTTGCCGTGTGGCCGTGTCCCGTTTCCCGGAGTCACCTAGTGCAG | 8310 fluorescence intensity (a.u.)
AATGTGACCAAGCCAACTTAACTTATTATACTTCTTAGTTCGGAGTCACCTAGTGCAG | 8680 fluorescence intensity (a.u.)
CCATATCCATCAGTAATAAGCTTTGACCTCTGCGTGCTTTCGGAGTCACCTAGTGCAG | 8170 fluorescence intensity (a.u.)
AGAGACACAATAACTTCTTGCAATTATCCTCTGTGCTGTTCGGAGTCACCTAGTGCAG | 8990 fluorescence intensity (a.u.)
GATATGCAATGCTGTTGCGGTTGCTGGTTTTCTAAATGCACGGAGTCACCTAGTGCAG | 9470 fluorescence intensity (a.u.)
TACGCTGCTACTTCTCGCTCTTCCTCTCGCTGATCCTATTCGGAGTCACCTAGTGCAG | 8330 fluorescence intensity (a.u.)
TCAGTCAGATCTCCGTCCGTCCGTCTGTGTCTCTTGGCCGCGGAGTCACCTAGTGCAG | 10600 fluorescence intensity (a.u.)
CTATCTCGGTGTCTAATTGAGTACATGTTGCTATTTTTTGCGGAGTCACCTAGTGCAG | 10700 fluorescence intensity (a.u.)
CTGTACTGTGCCCTTCTATATTCATGTACTACCTTGTTTCCGGAGTCACCTAGTGCAG | 10400 fluorescence intensity (a.u.)
AGAAACGGAAAACACCCACAGTCCCAGCCACAGCACATTTCGGAGTCACCTAGTGCAG | 8530 fluorescence intensity (a.u.)
GTCATTCTAGCATTTCCCAGATTCATTAACATTAATATAACGGAGTCACCTAGTGCAG | 8050 fluorescence intensity (a.u.)
TAGCAACCGTGGATGAAGGTTGCCGCCGTTCTTGTCCGCCCGGAGTCACCTAGTGCAG | 9100 fluorescence intensity (a.u.)
ATCACATCTTAACATTTCATTCTCTGCTCAAAGATTCGATCGGAGTCACCTAGTGCAG | 8620 fluorescence intensity (a.u.)
ATCTATTCCCAACTATTATTTCTTTCTTGCCCTTTTATCTCGGAGTCACCTAGTGCAG | 9370 fluorescence intensity (a.u.)
CTTGCTCGTTGTAACTGTTTAATCTATTATGTTTTTTTTTCGGAGTCACCTAGTGCAG | 11000 fluorescence intensity (a.u.)

Part of the list above, as comma-separated lines.
Sequence,binding signal
GTCATTCTAGCATTTCCCAGATTCATTAACATTAATATAACGGAGTCACCTAGTGCAG,8050 fluorescence intensity (a.u.)
TAGCAACCGTGGATGAAGGTTGCCGCCGTTCTTGTCCGCCCGGAGTCACCTAGTGCAG,9100 fluorescence intensity (a.u.)

The listing continues.

Sequence | binding signal
TGTACTCGTCACGTCATATGCTTCGCACCTGTGCAAGCTGCGGAGTCACCTAGTGCAG | 8160 fluorescence intensity (a.u.)
GGTTTGGTTTCAGTCTTTTGTGCAAGTACTAGTACTTGCCCGGAGTCACCTAGTGCAG | 10500 fluorescence intensity (a.u.)
CACCCTGCTTCTGATTTTTAACTTTTGTTCCTTTTACCAACGGAGTCACCTAGTGCAG | 8260 fluorescence intensity (a.u.)
ATGCCGTGAACATGATCCCTTCCATTAGAGTACTTTGTTTCGGAGTCACCTAGTGCAG | 9700 fluorescence intensity (a.u.)
GTAATACTCCTTCCGTTTTATATTATAAGTCATTTAGTTTCGGAGTCACCTAGTGCAG | 10300 fluorescence intensity (a.u.)
ATAGTTTCGATATCACCTTTGCCTTTTATTTTACCCTTGTCGGAGTCACCTAGTGCAG | 11800 fluorescence intensity (a.u.)
TTTCCGTATATTTTGAATTCAGTCCCATCATTTTTTCCTACGGAGTCACCTAGTGCAG | 9940 fluorescence intensity (a.u.)
AGCAGGGAGTACAAATTTGACTTTTCAAAAATTCCCCTACCGGAGTCACCTAGTGCAG | 8120 fluorescence intensity (a.u.)
GGTTTTGTGTTATTATGTTTTAAAACATGTGACTTATGAACGGAGTCACCTAGTGCAG | 8190 fluorescence intensity (a.u.)
TTTATAACTTTTTCATCTATATGCAGTCTCTAAGTTTTTACGGAGTCACCTAGTGCAG | 8150 fluorescence intensity (a.u.)
TAAGTTGGGGTCATGTTGTATATGGTATTTGGGTTAAAGACGGAGTCACCTAGTGCAG | 13100 fluorescence intensity (a.u.)
CTCTCGGTCGTCGGCCTCGTCCTCCGGGCCGGCATTCATCCGGAGTCACCTAGTGCAG | 8560 fluorescence intensity (a.u.)
GCAGCCGATTGGACTCGATCCTATCCTATCCTATCCTATCCGGAGTCACCTAGTGCAG | 11400 fluorescence intensity (a.u.)
TTGGATTGGCTGCTTCCCTGTGCTGGTTCAGTGATCCCTGCGGAGTCACCTAGTGCAG | 8150 fluorescence intensity (a.u.)
TCAGTCCTCCACATGACCCCACCTGTCATCCACATCACCGCGGAGTCACCTAGTGCAG | 8310 fluorescence intensity (a.u.)
CCCATCTCGCTAGCCGCCGCCGGCCACAACCATTCCTCACCGGAGTCACCTAGTGCAG | 9570 fluorescence intensity (a.u.)
CGGTGGTTTCGTGGGCTTTTTGCACTGTGGCGATAGAGGACGGAGTCACCTAGTGCAG | 8160 fluorescence intensity (a.u.)
GGGCGGTGCATTGGAGACGATAGGGGTGTAGGTCGTGTTCCGGAGTCACCTAGTGCAG | 8600 fluorescence intensity (a.u.)
CAGGCGCTCGCGGTCGGGGTCGGGGAGGAGGGAGAATCTCCGGAGTCACCTAGTGCAG | 9860 fluorescence intensity (a.u.)
GTTTCTTTTTTATTATTATTTTTCCAGCGAGCGACCTCTCCGGAGTCACCTAGTGCAG | 9010 fluorescence intensity (a.u.)
TACTACCTTTTCTTTTCGATCCGCGTATTTGAATTGACTTCGGAGTCACCTAGTGCAG | 10700 fluorescence intensity (a.u.)
